# Assay results reported in ChEMBL document CHEMBL3108733, “Design, synthesis, and evaluation of hydroxamic acid derivatives as promising agents for the management of Chagas disease” (J Med Chem, 2014).
# Tested on: Trypanosoma cruzi
# Assay: Antitrypanosomal activity against Trypanosoma cruzi Y epimastigotes after 5 days by resazurin dye-based assay
# Settings: 120 h
compound,measurement,value
O=C(Cn1ccnc1[N+](=O)[O-])NCc1ccccc1 [BENZNIDAZOLE],IC50,15.9 µM
